The target of this experiment is human HER3 (full length), stably overexpressed in CHO cells (CHO-HER3) (human) (UniProt P21860). Put plainly: affinity purification with mass spectrometry; HER3 immunoprecipitation-mass spectrometry (IP-MS) from lysates of CHO cells that stably overexpress human HER3.

Chains of the proteins cited; added tags and fusions are not shown. Residues count along the entry.
UniProt P21860, residues 20-1342: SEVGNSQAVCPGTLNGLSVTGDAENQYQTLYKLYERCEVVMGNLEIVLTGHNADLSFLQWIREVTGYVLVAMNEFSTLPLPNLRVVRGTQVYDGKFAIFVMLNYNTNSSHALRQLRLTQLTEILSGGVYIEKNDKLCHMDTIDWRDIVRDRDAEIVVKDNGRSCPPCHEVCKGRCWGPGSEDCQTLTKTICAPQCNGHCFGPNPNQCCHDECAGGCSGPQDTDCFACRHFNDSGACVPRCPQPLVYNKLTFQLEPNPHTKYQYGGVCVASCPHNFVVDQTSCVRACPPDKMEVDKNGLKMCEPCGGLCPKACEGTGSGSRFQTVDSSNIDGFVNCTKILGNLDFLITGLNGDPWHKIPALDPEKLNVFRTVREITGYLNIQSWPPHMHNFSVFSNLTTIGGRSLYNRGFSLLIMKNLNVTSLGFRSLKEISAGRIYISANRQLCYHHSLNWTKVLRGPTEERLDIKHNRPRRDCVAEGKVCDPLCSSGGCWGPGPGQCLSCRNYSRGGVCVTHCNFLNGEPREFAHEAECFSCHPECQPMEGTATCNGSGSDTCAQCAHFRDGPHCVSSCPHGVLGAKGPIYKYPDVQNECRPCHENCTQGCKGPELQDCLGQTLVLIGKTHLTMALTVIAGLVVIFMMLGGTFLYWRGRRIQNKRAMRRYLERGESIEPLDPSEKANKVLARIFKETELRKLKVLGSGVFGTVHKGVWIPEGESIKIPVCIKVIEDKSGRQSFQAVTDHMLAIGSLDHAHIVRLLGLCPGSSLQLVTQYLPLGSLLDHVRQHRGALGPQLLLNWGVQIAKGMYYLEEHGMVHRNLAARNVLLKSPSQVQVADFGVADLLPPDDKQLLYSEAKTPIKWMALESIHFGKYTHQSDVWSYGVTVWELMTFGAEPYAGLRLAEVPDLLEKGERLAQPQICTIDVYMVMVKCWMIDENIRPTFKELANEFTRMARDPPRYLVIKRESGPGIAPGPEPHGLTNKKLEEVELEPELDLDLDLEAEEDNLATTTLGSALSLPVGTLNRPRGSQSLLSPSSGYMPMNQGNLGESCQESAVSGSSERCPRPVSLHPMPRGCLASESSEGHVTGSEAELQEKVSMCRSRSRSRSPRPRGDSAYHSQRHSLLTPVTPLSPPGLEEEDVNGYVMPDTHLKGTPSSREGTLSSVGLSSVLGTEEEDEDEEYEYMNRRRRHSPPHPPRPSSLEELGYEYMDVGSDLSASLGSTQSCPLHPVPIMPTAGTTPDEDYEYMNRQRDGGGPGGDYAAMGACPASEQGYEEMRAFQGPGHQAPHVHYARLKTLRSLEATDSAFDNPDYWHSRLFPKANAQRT

These are yes or no findings as the source states them, for the method shown. In cells and extracts the contact can be indirect. A yes stands for co-enrichment or nearness to the bait. Other partners may have been found.

B1: DJ-1 in CHO-HER3 cells (protein, UniProt G3IEU2 1-189)
chain: MASKRALVILAKGAEEMETVIPVDVMRRAGIKVTIAGLAGKDPVQCSRDVMICPDTSLEDAKKQGPYDVVVLPGGNLGAQNLSESAVVKEILKEQESRKGLIAAICAGPTALLAHEIGFGSKVTTHPGAKDKMINGGHYSYTESRVERDGLILTSQGPGTSFEFALAIVEALSGKEMADKVKAPLLLKD
Turning to B1, the binding entry is “binds”.
